Test results taken from patent US10624972B2 (priority 2015, dated 2020).
Some peptides are written in HELM: one residue between dots, names in brackets for other building blocks, links after the first $.

Assay: general procedure: peptide synthesis; PyBOP/DIPEA
Details: conjugation step

PEPTIDE1{[Pte].[gGlu].[Glu_glucamide].[dE].[Glu_glucamide].[dE].[Glu_glucamide].[dC]}|CHEM1{[SEt-proPBD-Hoechst]}$PEPTIDE1,CHEM1,8:R3-1:R1$$$V2.0
conjugation yield: 30%
